The source of these data is PubChem BioAssay AID330 (DTP/NCI, 2004).

The assay concerns P388 leukemia ip, CD2F1 mice, survival T/C. As to the kind of experiment: NCI In Vivo Anticancer Drug Screen. Data for tumor model P388 Leukemia (intraperitoneal) in CD2F1 (CDF1) mice. Conditions: T/C endpoint: median survival time, higher T/C = longer survival.
The mark [1] stands for this setting: dose: 200.0 mg/kg/injection, schedule: Q01DX009 (ip), vehicle: saline.
[2] abbreviates: dose: 64.0 mg/kg/injection, schedule: Q01DX009 (ip), vehicle: Klucel (hydroxypropylcellulose) (HPC).
Where [3] appears, read: dose: 50.0 mg/kg/injection, schedule: Q01DX009 (ip), vehicle: saline.
Setting [4] is: dose: 400.0 mg/kg/injection, schedule: Q04DX003 (ip), vehicle: saline.
Setting [5] is: dose: 200.0 mg/kg/injection, schedule: Q01DX005 (ip), vehicle: saline with Tween-80.
[6] abbreviates: dose: 240.0 mg/kg/injection, schedule: Q01DX005 (ip), vehicle: Klucel (hydroxypropylcellulose) (HPC).
Setting [7] is: dose: 50.0 mg/kg/injection, schedule: Q01DX005 (ip), vehicle: saline with Tween-80.
[8] abbreviates: dose: 50.0 mg/kg/injection, schedule: Q01DX005 (ip), vehicle: Klucel (hydroxypropylcellulose) (HPC).
Setting [9] is: dose: 100.0 mg/kg/injection, schedule: Q01DX005 (ip), vehicle: Klucel (hydroxypropylcellulose) (HPC).
Where [10] appears, read: dose: 200.0 mg/kg/injection, schedule: Q01DX005 (ip), vehicle: Klucel (hydroxypropylcellulose) (HPC).
The mark [11] stands for this setting: dose: 100.0 mg/kg/injection, schedule: Q01DX005 (ip), vehicle: saline with Tween-80.
The mark [12] stands for this setting: dose: 100.0 mg/kg/injection, schedule: Q01DX005 (ip), vehicle: saline.

The list is a part of this screen's results and no random one: it is rich in T/C values a quarter to a half above the control, in often repeated tests (any T/C) and in doses without a T/C. Other doses and runs of a compound stand elsewhere. T/C gives the treated animals as a percentage of the vehicle group. Some doses have a count of surviving animals in place of a T/C: the source files T/C as zero there, which appears to mark a toxic dose or a test without result, not a measured value. Some doses without a T/C left all or most animals alive at the check, yet need not have been tolerated: survival well below the control is almost never listed, so the zero probably covers shortened survival too. Counts of survivors are from the toxicity check (mostly the fifth day) where no day follows; animals may have died later. Schedule codes are those of the source, read here as Q, the interval in days (D) or hours (H), X, the number of doses. Some doses were run more than once; the results are listed from low to high. Where survival is the endpoint, the PubChem record calls one and a half times the control and up active, and a quarter to a half above the control has no call in these data; cut-offs in other NCI protocols can differ. Some T/C values are followed by the survivors on the day toxicity was checked, most often the fifth; where none is given, no animal had died by that day.

On to `CCCOC(=O)/C=C(\F)C(=O)OCCC`, for which the survivor count runs as follows: (dose: 100.0 mg/kg/injection, schedule: Q04DX002 (ip), vehicle: saline with Tween-80) 0 of 6; (dose: 200.0 mg/kg/injection, schedule: Q04DX002 (ip), vehicle: saline with Tween-80) 0 of 6; (dose: 400.0 mg/kg/injection, schedule: Q04DX002 (ip), vehicle: saline with Tween-80) 0 of 6.

For `CCCCCC(=O)c1c(O)cc2c(c1O)C(=O)c1c(O)cc(OC)cc1C2=O`, where the note is “dose: 25.0 mg/kg/injection, schedule: Q01DX009 (ip), vehicle: saline with Tween-80”, the survivor count is 3 of 3.

Consider `COc1cc2c(c(OC)c1OC)-c1ccc(OC)c(=O)cc1[C@@H](NC=O)CC2`, for which the T/C reads like this: (dose: 0.5 mg/kg/injection, schedule: Q01DX009 (ip), vehicle: saline) 147 % of control; (dose: 1.0 mg/kg/injection, schedule: Q01DX009 (ip), vehicle: saline) 147 % of control. Besides, under “dose: 2.0 mg/kg/injection, schedule: Q01DX009 (ip), vehicle: saline”, the survivor count is 6 of 6.

On to `CCSSC(=Nc1ccccc1)OCC(C)C`, for which, where the note is “dose: 400.0 mg/kg/injection, schedule: Q01DX009 (ip), vehicle: saline + Tween-80 + alcohol”, the survivor count is on record as 2 of 6.

On to `COc1ccc(C(=O)CCN(C)C)cc1`, for which, under setting [1], the survivor count is recorded as 5 of 6.

As for `O=C(CCl)NC(Cc1ccc(N(CCCl)CCCl)cc1)C(=O)O` (centres undefined), the T/C runs as follows: (dose: 2.0 mg/kg/injection, schedule: Q01DX009 (ip), vehicle: Klucel (hydroxypropylcellulose) (HPC)) 105, 113, 134, 151 % of control; (dose: 4.0 mg/kg/injection, schedule: Q01DX009 (ip), vehicle: Klucel (hydroxypropylcellulose) (HPC)) 106, 113, 127, 150 % of control; (dose: 8.0 mg/kg/injection, schedule: Q01DX009 (ip), vehicle: Klucel (hydroxypropylcellulose) (HPC)) 116, 127, 132, 180 % of control [5 of 6 alive]; (dose: 16.0 mg/kg/injection, schedule: Q01DX001 (ip), vehicle: Klucel (hydroxypropylcellulose) (HPC)) 128 % of control; (dose: 16.0 mg/kg/injection, schedule: Q01DX009 (ip), vehicle: Klucel (hydroxypropylcellulose) (HPC)) 117, 141, 153, 243 % of control; (dose: 32.0 mg/kg/injection, schedule: Q01DX001 (ip), vehicle: Klucel (hydroxypropylcellulose) (HPC)) 131 % of control. For the same compound, the T/C is, setting by setting: (dose: 32.0 mg/kg/injection, schedule: Q01DX009 (ip), vehicle: Klucel (hydroxypropylcellulose) (HPC)) 115 [5 of 6 alive], 142, 182, 185 % of control; (dose: 64.0 mg/kg/injection, schedule: Q01DX001 (ip), vehicle: Klucel (hydroxypropylcellulose) (HPC)) 146 % of control; under setting [2], 142 % of control; (dose: 128.0 mg/kg/injection, schedule: Q01DX001 (ip), vehicle: Klucel (hydroxypropylcellulose) (HPC)) 146 % of control. Further, the survivor count is, setting by setting: under setting [2], 5 of 6; (dose: 256.0 mg/kg/injection, schedule: Q01DX001 (ip), vehicle: Klucel (hydroxypropylcellulose) (HPC)) 0 of 6.

`O=[N+]([O-])c1ccc(/C=C/C=C/C=C/C=C/c2ccc(S(=O)(=O)F)cc2Cl)c(Cl)c1`: the survivor count is, setting by setting: (dose: 120.0 mg/kg/injection, schedule: Q01DX005 (ip), vehicle: saline with Tween-80) 6 of 6; (dose: 240.0 mg/kg/injection, schedule: Q01DX005 (ip), vehicle: saline with Tween-80) 6 of 6.

Consider `CC[N](CC)[Ge]([CH2]C)[CH2]C.CC[N](CC)[Ge]([CH2]C)[CH2]C`, for which the T/C is, setting by setting: (dose: 25.0 mg/kg/injection, schedule: Q01DX009 (ip), vehicle: saline) 125 % of control; under setting [3], 138 % of control. In addition, the survivor count is reported as 6 of 6 under setting [3]; 5 of 6 (dose: 100.0 mg/kg/injection, schedule: Q01DX009 (ip), vehicle: saline); 0 of 6 under setting [1]; 0 of 6 (dose: 200.0 mg/kg/injection, schedule: Q04DX003 (ip), vehicle: saline); 0 of 6 under setting [4].

With `Nc1ccn([C@@H](C=O)O[C@@H](C=O)CO)c(=O)n1`, the T/C (dose: 100.0 mg/kg/injection, schedule: Q04DX003 (ip), vehicle: saline) was 125 % of control and the T/C (dose: 150.0 mg/kg/injection, schedule: Q04DX003 (ip), vehicle: saline) was 129 % of control. For the same compound, the survivor count (dose: 400.0 mg/kg/injection, schedule: Q01DX009 (ip), vehicle: saline) is listed as 3 of 6.

Regarding `Cc1oc2c(C)c3oc(=O)cc(C)c3cc2c1CN`, under “dose: 50.0 mg/kg/injection, schedule: Q01DX001 (ip), vehicle: Klucel (hydroxypropylcellulose) (HPC)”, the survivor count is 1 of 6.

For the compound `CC1CC(O)C(CN(C)C)C(C)(C)C1` (centres undefined), under setting [5], the survivor count was 0 of 6.

`Cc1c[n+]2ccccc2n1C`: the survivor count (dose: 12.5 mg/kg/injection, schedule: Q01DX009 (ip), vehicle: saline) is reported as 6 of 6.

On to `Cc1nc2sccn2c1C(N)=O`, for which the survivor count under setting [6] was 0 of 6.

Take `CC/C(=C(\CC)c1ccc(OC)cc1)c1ccc(OC)cc1`: the T/C (dose: 200.0 mg/kg/injection, schedule: Q01DX009 (ip), vehicle: saline with Tween-80) was 132 % of control [5 of 6 alive].

On to `COc1ccc2c(c1)n([O-])c1ccccc1[n+]2=O`, for which the T/C under setting [7] is 127 and 141 % of control. Moreover, the survivor count under setting [5] is 1 of 5 and 5 of 6.

As to `CCCCCCCCCCNCCSSc1ccccc1`, the survivor count runs as follows: under setting [8], 5 of 5; under setting [9], 3 of 5; under setting [10], 0 of 5.

For the compound `COc1ccc2cc3c(nc2c1N)C(=O)C(N1CC1)=C(N1CC1)C3=O`, the T/C under setting [8] is 131 % of control, the T/C under setting [9] was 135 % of control and the T/C under setting [10] was 135 % of control [5 of 6 alive].

Consider `CC(=O)Oc1ccccc1C(=O)OC1CCN(C(C)C)C1` (centres undefined), for which the survivor count under setting [4] is 0 of 6.

As for `C#CCC(C(C)=O)C(C)=O.[C-]#[O+].[C-]#[O+].[C-]#[O+].[C-]#[O+].[C-]#[O+].[C-]#[O+].[Co].[Co]`, the survivor count by setting is: under setting [9], 0 of 6; under setting [10], 0 of 6.

With `CSCCCNC(=O)c1csc(-c2csc(CCNC(=O)[C@@H](NSc3ccccc3[N+](=O)[O-])[C@@H](C)O)n2)n1`, the survivor count under setting [11] is given as 5 of 5.

As for `N#CC1OC1c1cccc[n+]1[O-]` (centres undefined), the survivor count runs as follows: (dose: 25.0 mg/kg/injection, schedule: Q01DX005 (ip), vehicle: saline with Tween-80) 0 of 6; under setting [7], 0 of 6; (dose: 50.0 mg/kg/injection, schedule: Q01DX005 (ip), vehicle: saline) 0 of 6; under setting [11], 0 of 6; under setting [12], 0 of 6; under setting [5], 0 of 6. The survivor count (dose: 200.0 mg/kg/injection, schedule: Q01DX005 (ip), vehicle: saline) was 0 of 6.

Take `CC(C)SC(=O)C[Si](C)(C)C`: under “dose: 400.0 mg/kg/injection, schedule: Q04DX003 (ip), vehicle: saline with Tween-80”, the survivor count is 3 of 6.

As for `CCOC(=O)C1=C(C(C)=O)C(c2ccc([N+](=O)[O-])cc2)C(C(C)=O)=C(C(=O)OCC)N1`, the survivor count was 1 of 6 (dose: 60.0 mg/kg/injection, schedule: Q01DX005 (ip), vehicle: Klucel (hydroxypropylcellulose) (HPC)); 0 of 6 (dose: 120.0 mg/kg/injection, schedule: Q01DX005 (ip), vehicle: Klucel (hydroxypropylcellulose) (HPC)); 0 of 6 under setting [6].

Turning to `COC(=O)C1C(=O)COC1C` (centres undefined), the survivor count under setting [12] is given as 5 of 6.

As to `CCCCCCCCCCCC(=O)OCCN(CCOC(=O)CCCCCCCCCCC)C(=O)COC(=O)CCCCCCCCCCC`, the survivor count (dose: 50.0 mg/kg/injection, schedule: Q01DX009 (ip), vehicle: saline + Tween-80 + alcohol) is 5 of 6.

For the compound `Nc1nc(N)nc(N)n1`, the survivor count (dose: 1600.0 mg/kg/injection, schedule: Q01DX009 (ip), vehicle: saline with Tween-80) was 6 of 10.
